Reference: PubChem BioAssay AID1347426 (Functional Genomics Laboratory (NCATS/FGL), 2020)
Hit rate of the full screen: of about 31,000 sequences, about 1,400 (4.5%) were called active.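 Rule for the calls: active = median seed-adjusted z-score above 1 or below -1; inactive = the rest.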 The list shows a part of the results.

Assay: Novel Modifiers of Survival Motor Neuron (SMN) Protein: Gene Identification via Genome-wide siRNA Screen;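 note: luminescence tracks full-length SMN protein made from the SMN2 reporter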
Conditions: HEK293T SMN2-luciferase reporter, siRNA knockdown, 72 h; actives lie on both sides
How it was run: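 siRNA screen, 10418 genes ×3 siRNAs; 1 pmol/well, lipid reverse transfection into HEK293T SMN2-luc reporter line. 72 h, 37 °C, 5% CO2; ONE-Glo readout. Data: neg-ctrl normalized, log10, MAD; hit = MAD >1.0 or < -1.0.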

| Sequence | median seed-adjusted z-score |
| --- | --- |
| UGGUAACCAUUGUUAUUAUTT against KLRG1 | inactive: -0.0324 |
| AGAAGAAUAAUUCCAUGAATT against OBFC2A | inactive: 0.406 |
| AGGCAAACGUGUUCGUGCATT against IGFALS | inactive: 0.0888 |
| GUUUCACACCAGCCUGGAATT against PYCARD | inactive: 0.117 |
| CGCCCACGUCAUUUGCAUATT against PYY | inactive: 0.437 |
| ACGACGACAUUGUGGUUCATT against NFKBIB | inactive: 0.00673 |
| GCACUAUUAAAAUUCCCGATT against SBF2 | inactive: 0.569 |
| GGAUUUUCAGAGGAUUGAATT against ZRANB1 | inactive: -0.347 |
| CCUCCAUUCUCUUUGACCATT against RPS6KA4 | inactive: 0.193 |
| CCUGAACAUUGGACCCUGUTT against CPSF1 | active: 3.29 |
| GGCCGCUGCUUGUUUGUCATT against SLC13A3 | inactive: 0.0434 |
| CUGUUUAACUGUGUAGGAATT against NOG | inactive: 0.328 |
| GCGAAUAUGUAGAGAUGUATT against NFE2 | inactive: -0.0226 |
| CAAUCACUAUAGUCCAUGATT against KCNJ2 | inactive: -0.0834 |
| GGGUAUCAUUAAUGGGAUUTT against CLASP2 | inactive: 0.157 |
| CCACCAGUUUUAGUACCCATT against FLVCR1 | inactive: 0.197 |
| CCUGGACAGUUUGAAGCAATT against KCTD15 | inactive: 0.982 |
| GGAUUUGCAUCCGUGAUUATT against SLC5A8 | inactive: 0.441 |
| CAGACUCCCUCAUCACCAATT against ALAS1 | active: -1.15 |
| CUACGUGUCUUAUCGAAGATT against SORCS3 | inactive: -0.151 |
| CCAGGACUUUGUUACUGCATT against TIGD6 | inactive: -0.443 |
| GCACGAGGCUGGUACAGUUTT against MFNG | inactive: 0.377 |
| CAGGCUCAAUGAAUCGAAUTT against KHSRP | inactive: -0.856 |

| Sequence | median seed-adjusted z-score |
| --- | --- |
| CAUUGUGAGCUAUAACGAUTT against CDH10 | inactive: 0 |
| UGACAGUGACGGAUGCUAATT against OPLAH | inactive: -0.233 |
| CCUUAGGACUGAUGGAGAATT against CPT1C | inactive: -0.458 |
| GCCUAUGCUGAACUCAUUATT against USP4 | inactive: -0.0365 |
| GACUCGACCUUCUCAGAGATT against GRHL1 | inactive: 0.115 |
| UGAUGCUGGUUUCUACUGUTT against MS4A6E | inactive: -0.341 |
| GGUUGACAUUACUACUGAATT against IRAK4 | inactive: -0.288 |
| GGUAUACAGAUGACAACAATT against DMC1 | inactive: -0.00876 |
| CCCUGUCAUCUAUGCUCUATT against CNR2 | inactive: 0.33 |
| AGGACUUUGAGGAACCGGATT against TNK2 | inactive: -0.574 |
| CCAAGAUAUUCUUCGAGAATT against CADPS2 | inactive: -0.0213 |
| AGUCCUCGGUGGUAACCAATT against P2RX3 | inactive: -0.44 |
| GCAUGCUCAUGGGUUACAATT against ZNF451 | inactive: 0 |
| GAACUGACCUCUACACUAATT against AGBL2 | inactive: -0.796 |
| CAACAUUGAUGUUCCUCCATT against ZNF704 | inactive: -0.15 |
| GGCUUCUCCCAGAGCAUCATT against CLCNKA | inactive: -0.398 |
| GAAUAUUCUCGAUUUAAUATT against PPP1R3D | inactive: 0 |
| CCUGCAGAAUAACCUGAUATT against OPTC | inactive: 0.0953 |
| GGAAGACCCAAAGAGGGAATT against SNX11 | inactive: 0.00451 |
| CCACCUACCUGAAUGUCCATT against ORM1 | inactive: 0.206 |
| GGGAGUGACAUAUCCAAGATT against CCL26 | inactive: -0.01 |
| CAGCCUUCGUGAUAGCUCATT against ADAMTS14 | inactive: 0.209 |
| CGACUAUCCUGGACCACAUTT against WNT3 | inactive: -0.839 |

| Sequence | median seed-adjusted z-score |
| --- | --- |
| AAUAAGUUAUUUAGACAGATT against NAT8L | inactive: 0 |
| GAAAGAUCUGCAUCCAUAATT against ADAM21 | inactive: 0 |
| GCUAUGAGCUAAGGGAGAATT against PPIL5 | inactive: 0 |
| CGGCUAUCAUUGAAAGCGATT against FSD1 | inactive: 0.685 |
| GAUGGUGAAUAGUCGAUUUTT against PCSK1 | inactive: 0.154 |
| CUCUAGCUGAUAAACCUCATT against TRIM23 | inactive: -0.318 |
| GGAUAUCCAUAUCAAACCATT against RG9MTD2 | inactive: -0.599 |
| GCCUUUAGUAGGUCAAGAATT against ZNF721 | inactive: 0.404 |
| CGAGGGCAUAUAUGAAGAATT against TRAF2 | inactive: -0.00463 |
| AGAUUUGGAUACCGCAAAATT against PPIL5 | inactive: 0 |
| CCGGAUACCUCAACUCUCATT against NIT1 | inactive: -0.528 |
| GCCGAAAAGAGAUGGAUAATT against MYO18B | inactive: -0.597 |
| GGAAGCUACAUGACAGUAATT against RASEF | inactive: 0.299 |
| GCUGCGUGCUCAUCCGAAATT against APRT | inactive: 0.0278 |
| AGGAAGGUGUGAAGAAGAATT against SNX15 | inactive: -0.152 |
| CUUCCUUCGUCUUCACCUATT against FOS | inactive: 0.343 |
| GGAGAGGCAGAUCAAGAUATT against HOXB6 | inactive: -0.168 |
| GGUCAAACAAAUAAAAGUUTT against TNFRSF10D | inactive: 0.0234 |
| AGAUGGAUGCUCACCCGAATT against LIMD1 | inactive: 0.587 |
| CAUCAGACAUUCACAACAATT against UST | inactive: 0.265 |
| CUUGGAAUAUAUAUCGAUATT against CNIH4 | inactive: -0.0718 |
| GGUUAUGAACUUUGGAUAATT against GPR103 | inactive: 0 |
| CCAGCAUUGCGGAAGUGCATT against CACNB3 | inactive: 0.573 |

Laid out differently: results already given.
AGGCAAACGUGUUCGUGCATT against IGFALS
  median seed-adjusted z-score: inactive: 0.0888
GUUUCACACCAGCCUGGAATT against PYCARD
  median seed-adjusted z-score: inactive: 0.117
GGGAGUGACAUAUCCAAGATT against CCL26
  median seed-adjusted z-score: inactive: -0.01
CCGGAUACCUCAACUCUCATT against NIT1
  median seed-adjusted z-score: inactive: -0.528
